{"source": "PubChem BioAssay AID1259273, Sanger Institute – 2017", "assay": "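Find kinase knock-downs that boost killing of colorectal cancer cells by anchor drugs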 (follow-up of hits)", "system": "human NCI-H630 colorectal cancer cells", "reagents": "single siRNA against human genes", "challenge": "anchor drugs BYL719 at 1 µM, cetuximab at 5 µg/ml or trametinib at 10 nM, or DMSO vehicle alone", "detection": "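Viability relative to wells given a non-targeting control pool; synergy score for each anchor drug, weighing combined effect against siRNA only and drug only; replicate means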", "direction": "synergy score with trametinib and synergy score with BYL719 and synergy score with cetuximab: higher = stronger synergy, more synthetic lethal", "rule for the call": "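a duplex counts as synthetic lethal if its averaged synergy score exceeds 0.10 with BYL719, cetuximab or trametinib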", "note": "This is one part, drawn at random, of 160 reagents. 36 of all reagents (22%) count as active. 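Four distinct siRNA duplexes per gene; each call applies to one duplex and is not gene-level validation across cell lines.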 Unmarked entries are inactive. The numbers tell different reagents against one gene apart. Further read-outs or replicates are left out here. The record does not give: the amount of reagent, the time to read-out."}
{"gene knocked down": "GUCY2D", "reagent no.": 1, "synergy score with trametinib": 0.0642, "synergy score with BYL719": -0.138, "synergy score with cetuximab": 0.018}
{"gene knocked down": "GUCY2D", "reagent no.": 2, "synergy score with trametinib": "0.151 (active)", "synergy score with BYL719": 0.0235, "synergy score with cetuximab": 0.0108}
{"gene knocked down": "GUCY2D", "reagent no.": 3, "synergy score with trametinib": "0.171 (active)", "synergy score with BYL719": 0.0129, "synergy score with cetuximab": -0.103}
{"gene knocked down": "GUCY2D", "reagent no.": 4, "synergy score with trametinib": 0.0631, "synergy score with BYL719": -0.0857, "synergy score with cetuximab": -0.23}
{"gene knocked down": "KCNH8", "reagent no.": 1, "synergy score with trametinib": "0.167 (active)", "synergy score with BYL719": 0.0614, "synergy score with cetuximab": -0.0558}
{"gene knocked down": "KCNH8", "reagent no.": 2, "synergy score with trametinib": "0.14 (active)", "synergy score with BYL719": 0.0794, "synergy score with cetuximab": 0.0171}
{"gene knocked down": "KCNH8", "reagent no.": 3, "synergy score with trametinib": -0.0696, "synergy score with BYL719": -0.0439, "synergy score with cetuximab": -0.097}
{"gene knocked down": "KCNH8", "reagent no.": 4, "synergy score with trametinib": 0.0624, "synergy score with BYL719": 0.0285, "synergy score with cetuximab": -0.0498}
{"gene knocked down": "IRAK3", "reagent no.": 1, "synergy score with trametinib": 0.0347, "synergy score with BYL719": 0.0427, "synergy score with cetuximab": -0.117}
{"gene knocked down": "IRAK3", "reagent no.": 2, "synergy score with trametinib": 0.0664, "synergy score with BYL719": -0.108, "synergy score with cetuximab": 0.0127}
{"gene knocked down": "IRAK3", "reagent no.": 3, "synergy score with trametinib": 0.00835, "synergy score with BYL719": -0.146, "synergy score with cetuximab": -0.0981}
{"gene knocked down": "IRAK3", "reagent no.": 4, "synergy score with trametinib": -0.0527, "synergy score with BYL719": -0.0984, "synergy score with cetuximab": -0.18}
{"gene knocked down": "SYNCRIP", "reagent no.": 1, "synergy score with trametinib": 0.0538, "synergy score with BYL719": -0.265, "synergy score with cetuximab": -0.0464}
{"gene knocked down": "SYNCRIP", "reagent no.": 2, "synergy score with trametinib": -0.0481, "synergy score with BYL719": -0.146, "synergy score with cetuximab": -0.178}
{"gene knocked down": "SYNCRIP", "reagent no.": 3, "synergy score with trametinib": 0.0104, "synergy score with BYL719": -0.0912, "synergy score with cetuximab": -0.083}
{"gene knocked down": "SYNCRIP", "reagent no.": 4, "synergy score with trametinib": 0.0325, "synergy score with BYL719": -0.0285, "synergy score with cetuximab": -0.128}
{"gene knocked down": "CDK6", "reagent no.": 1, "synergy score with trametinib": "0.189 (active)", "synergy score with BYL719": -0.137, "synergy score with cetuximab": -0.0261}
{"gene knocked down": "CDK6", "reagent no.": 2, "synergy score with trametinib": "0.197 (active)", "synergy score with BYL719": -0.111, "synergy score with cetuximab": 0.00382}
{"gene knocked down": "CDK6", "reagent no.": 3, "synergy score with trametinib": 0.0782, "synergy score with BYL719": -0.0601, "synergy score with cetuximab": -0.0791}
{"gene knocked down": "CDK6", "reagent no.": 4, "synergy score with trametinib": "0.12 (active)", "synergy score with BYL719": 0.0471, "synergy score with cetuximab": 0.015}
{"gene knocked down": "IKBKB", "reagent no.": 1, "synergy score with trametinib": -0.0589, "synergy score with BYL719": -0.124, "synergy score with cetuximab": 0.0683}
{"gene knocked down": "IKBKB", "reagent no.": 2, "synergy score with trametinib": -0.0113, "synergy score with BYL719": -0.044, "synergy score with cetuximab": -0.075}
{"gene knocked down": "IKBKB", "reagent no.": 3, "synergy score with trametinib": "0.104 (active)", "synergy score with BYL719": -0.14, "synergy score with cetuximab": -0.0646}
{"gene knocked down": "IKBKB", "reagent no.": 4, "synergy score with trametinib": -0.0538, "synergy score with BYL719": -0.158, "synergy score with cetuximab": -0.0857}

In a second layout: results already given
gene knocked down	reagent no.	synergy score with trametinib	synergy score with BYL719	synergy score with cetuximab
SYNCRIP	1	0.0538	-0.265	-0.0464
SYNCRIP	2	-0.0481	-0.146	-0.178
